# Results of single-concentration screens

Protein sequences, listed by entry. Tags and fused reporters are not part of them. Residues count along the entry.
UniProt P9WPC5, whole entry: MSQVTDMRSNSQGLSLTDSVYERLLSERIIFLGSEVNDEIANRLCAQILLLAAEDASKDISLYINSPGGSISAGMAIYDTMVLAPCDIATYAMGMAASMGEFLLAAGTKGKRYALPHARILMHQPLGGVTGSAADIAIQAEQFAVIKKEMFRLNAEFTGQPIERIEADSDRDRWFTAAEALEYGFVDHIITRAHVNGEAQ
UniProt P9WPC3, whole entry partner: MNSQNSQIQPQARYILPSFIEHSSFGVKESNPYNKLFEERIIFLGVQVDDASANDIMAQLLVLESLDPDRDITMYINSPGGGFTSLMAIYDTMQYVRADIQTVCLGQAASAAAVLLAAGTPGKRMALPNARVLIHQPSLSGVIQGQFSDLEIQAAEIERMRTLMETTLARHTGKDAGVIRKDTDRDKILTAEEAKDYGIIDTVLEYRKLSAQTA
UniProt P9WFT3, whole entry: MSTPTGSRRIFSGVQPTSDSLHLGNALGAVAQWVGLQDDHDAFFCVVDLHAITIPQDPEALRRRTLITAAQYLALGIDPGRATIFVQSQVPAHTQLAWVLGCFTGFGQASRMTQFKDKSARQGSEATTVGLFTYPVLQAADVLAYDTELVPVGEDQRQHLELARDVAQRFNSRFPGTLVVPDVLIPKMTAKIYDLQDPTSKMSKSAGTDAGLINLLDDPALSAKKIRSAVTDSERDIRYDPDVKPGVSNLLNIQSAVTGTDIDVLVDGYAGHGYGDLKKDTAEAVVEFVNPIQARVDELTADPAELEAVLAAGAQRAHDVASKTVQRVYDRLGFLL
UniProt I6X8D2, whole entry: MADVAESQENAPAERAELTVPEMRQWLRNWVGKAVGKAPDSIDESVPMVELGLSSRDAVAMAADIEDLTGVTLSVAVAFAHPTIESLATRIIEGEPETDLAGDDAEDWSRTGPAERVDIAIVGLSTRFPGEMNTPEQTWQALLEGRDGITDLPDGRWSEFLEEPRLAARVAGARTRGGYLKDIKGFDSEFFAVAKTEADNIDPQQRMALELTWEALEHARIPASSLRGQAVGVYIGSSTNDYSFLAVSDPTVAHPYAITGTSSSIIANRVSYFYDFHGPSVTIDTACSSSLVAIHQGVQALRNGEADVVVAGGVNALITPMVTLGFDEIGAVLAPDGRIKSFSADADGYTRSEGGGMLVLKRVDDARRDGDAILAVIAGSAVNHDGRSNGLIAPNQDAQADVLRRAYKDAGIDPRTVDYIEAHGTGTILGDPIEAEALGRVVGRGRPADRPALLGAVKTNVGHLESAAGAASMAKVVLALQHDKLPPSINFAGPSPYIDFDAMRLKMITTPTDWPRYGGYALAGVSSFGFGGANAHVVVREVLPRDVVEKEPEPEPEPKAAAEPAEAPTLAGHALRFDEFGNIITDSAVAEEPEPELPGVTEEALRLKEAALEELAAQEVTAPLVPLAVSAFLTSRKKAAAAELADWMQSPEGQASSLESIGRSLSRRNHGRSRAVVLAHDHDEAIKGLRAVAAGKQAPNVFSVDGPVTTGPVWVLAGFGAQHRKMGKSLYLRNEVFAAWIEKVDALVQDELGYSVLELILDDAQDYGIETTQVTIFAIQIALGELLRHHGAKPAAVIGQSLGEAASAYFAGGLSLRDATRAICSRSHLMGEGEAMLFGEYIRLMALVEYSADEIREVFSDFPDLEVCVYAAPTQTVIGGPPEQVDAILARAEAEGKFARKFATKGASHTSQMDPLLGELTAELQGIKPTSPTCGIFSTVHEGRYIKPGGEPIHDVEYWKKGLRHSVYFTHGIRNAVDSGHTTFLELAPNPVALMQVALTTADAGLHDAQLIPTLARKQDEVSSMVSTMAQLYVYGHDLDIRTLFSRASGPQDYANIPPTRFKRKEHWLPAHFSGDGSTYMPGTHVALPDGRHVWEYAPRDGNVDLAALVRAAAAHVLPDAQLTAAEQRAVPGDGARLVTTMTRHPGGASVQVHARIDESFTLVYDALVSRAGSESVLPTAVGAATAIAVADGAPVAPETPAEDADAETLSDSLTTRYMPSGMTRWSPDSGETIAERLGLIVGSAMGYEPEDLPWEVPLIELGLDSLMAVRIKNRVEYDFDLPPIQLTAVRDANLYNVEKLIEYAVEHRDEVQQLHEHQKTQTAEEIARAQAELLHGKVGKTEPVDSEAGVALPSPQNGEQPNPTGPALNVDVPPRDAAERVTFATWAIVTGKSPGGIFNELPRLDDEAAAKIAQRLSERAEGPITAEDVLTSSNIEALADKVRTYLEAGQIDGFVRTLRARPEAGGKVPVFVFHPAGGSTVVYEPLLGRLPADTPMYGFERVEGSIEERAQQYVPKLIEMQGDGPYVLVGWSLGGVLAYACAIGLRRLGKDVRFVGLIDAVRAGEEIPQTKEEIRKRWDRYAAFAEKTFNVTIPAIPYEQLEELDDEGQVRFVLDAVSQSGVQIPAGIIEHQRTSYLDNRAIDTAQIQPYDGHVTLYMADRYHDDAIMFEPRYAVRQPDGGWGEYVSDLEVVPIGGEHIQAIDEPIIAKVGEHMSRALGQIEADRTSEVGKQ
UniProt Q8IDJ8, 1-583: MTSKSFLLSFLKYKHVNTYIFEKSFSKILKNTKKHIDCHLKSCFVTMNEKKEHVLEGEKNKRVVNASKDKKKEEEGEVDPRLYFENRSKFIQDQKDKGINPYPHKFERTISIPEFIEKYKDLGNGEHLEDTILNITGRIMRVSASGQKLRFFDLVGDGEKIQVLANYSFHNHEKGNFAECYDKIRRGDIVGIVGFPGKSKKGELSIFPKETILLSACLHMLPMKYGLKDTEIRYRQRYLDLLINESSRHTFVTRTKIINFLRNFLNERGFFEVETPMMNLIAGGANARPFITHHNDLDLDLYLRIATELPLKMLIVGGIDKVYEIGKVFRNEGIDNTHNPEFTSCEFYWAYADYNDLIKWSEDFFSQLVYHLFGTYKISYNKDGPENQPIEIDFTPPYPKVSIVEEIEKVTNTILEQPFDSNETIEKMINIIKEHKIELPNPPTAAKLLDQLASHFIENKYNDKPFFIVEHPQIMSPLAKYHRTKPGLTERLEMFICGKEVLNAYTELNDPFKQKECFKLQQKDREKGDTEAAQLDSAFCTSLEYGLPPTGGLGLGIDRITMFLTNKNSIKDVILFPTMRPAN

Data taken from ChEMBL document CHEMBL3988442, “University of Dundee, Small-Polar-MMV Screening Library” (2021).

Each number is a percent effect as filed.
The record does not define 0% and 100%; most values in the screen are far below 50% and negative numbers occur (in some assays of this library far below -100).
Compounds were drawn at random from those tested, without regard to their results.

ClpP1P2: 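ClpP1P2, Mycobacterium tuberculosis (UniProt P9WPC5 and UniProt P9WPC3). Protease assay of ClpP1P2, read by the AMC dye that it sets free. Compounds at 50 µM. Direction is inferred from only a few compounds that gave an IC50; most scored high, so higher reads as stronger inhibition. Most other retested compounds had strongly negative values. Size under these conditions: about 69,000 compounds, about 10 of them at 50% or above in at least one test.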
MtTrpRS: 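Tryptophan-tRNA ligase, Mycobacterium tuberculosis (UniProt P9WFT3). Enzyme assay of tryptophanyl-tRNA synthetase; the read-out is not stated. Compounds at 10 µM. Higher most likely means stronger inhibition; the record gives no direction and few retests gave an IC50. Size under these conditions: about 65,000 compounds, about 64 of them at 50% or above in at least one test.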
Pks13 thioesterase: 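Polyketide synthase Pks13, Mycobacterium tuberculosis (UniProt I6X8D2). Enzyme assay of the thioesterase domain of polyketide synthase 13; the read-out is not stated. Tested at 30 µM. The record gives no direction; the compounds picked for IC50 retests had high values, so higher reads as stronger inhibition. Of about 67,000 compounds tested this way, about 300 (0.46%) reached 50% or more in at least one test.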
PfKRS1: 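Lysine-tRNA ligase, Plasmodium falciparum 3D7 (UniProt Q8IDJ8). Enzyme assay of the cytosolic lysyl-tRNA synthetase in 384-well plates, read by luminescence. Compounds at 30 µM. Direction is inferred from only a few compounds that gave an IC50; most scored high, so higher reads as stronger inhibition. About 69,000 compounds were tested under these conditions; 0.071% (about 49) showed 50% or more at least once.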

- O=S(=O)(c1cccnc1)N1CCN(CC(O)c2cccs2)CC1 (configuration not stated) : ClpP1P2: 1.208%; MtTrpRS: -6.003%; Pks13 thioesterase: -21.09%; PfKRS1: 6.394%
- Cc1ccc(C)c(OCc2cc(C(=O)N(C)CC(O)CO)no2)c1 (configuration not stated) : ClpP1P2: 6.149%; MtTrpRS: 4.446%; Pks13 thioesterase: -20.85%; PfKRS1: 2.914%
- CN(Cc1ccco1)C(=O)CN1CCCC1Cn1cncn1 (configuration not stated) : ClpP1P2: -16.73%; MtTrpRS: -2.321%; Pks13 thioesterase: -10.61%; PfKRS1: 0.9959%
- CNC(=O)CN1CCOCC2(CCCN(Cc3ccsc3)C2)C1 (configuration not stated) : ClpP1P2: 3.797%; MtTrpRS: 0.995%; Pks13 thioesterase: -14.71%; PfKRS1: 1.714%
- Cc1ccccc1C(=O)N1C[C@@H]2CCN(c3cccnc3)C[C@@H]2C1 : ClpP1P2: 2.669%; MtTrpRS: -7.16%; PfKRS1: -2.67%
- Cc1cnn(CCNCC(=O)N2CCN(c3ncccn3)CC2)c1 : ClpP1P2: 5.536%; MtTrpRS: -0.08937%; Pks13 thioesterase: -9.809%; PfKRS1: 2.791%
- CS(=O)(=O)c1cn[nH]c1C1CCCN(C(=O)CN2CCOCC2)C1 (configuration not stated) : ClpP1P2: -16.01%; MtTrpRS: -6.118%; Pks13 thioesterase: 2.818%; PfKRS1: 0.7293%
- Cc1cc(C)c2nc(CNCCNS(C)(=O)=O)cc(O)c2c1 : ClpP1P2: -8.028%; MtTrpRS: 0.1501%; Pks13 thioesterase: -7.848%; PfKRS1: 6.221%
- O=S(=O)(c1cncc(F)c1)N1CCC2(CCOC2)C1 (configuration not stated) : ClpP1P2: -22.83%; MtTrpRS: -6.719%; Pks13 thioesterase: -10.43%; PfKRS1: 0.6157%
- CN(C)[C@@H]1CN(C(=O)Cc2ccsc2)[C@@H]2CCCO[C@H]12 : ClpP1P2: 1.135%; Pks13 thioesterase: -34.5%; PfKRS1: 1.452%
- Cc1nccc([C@H]2C[C@@H]3CCN(Cc4ccco4)C[C@H]3O2)n1 : ClpP1P2: 2.366%; MtTrpRS: -6.277%; Pks13 thioesterase: 1.75%; PfKRS1: 11.32%
- O=S(=O)(CCCN1CCCC(Cn2cncn2)C1)c1ccccc1 (configuration not stated) : ClpP1P2: -9.481%; MtTrpRS: -3.01%; Pks13 thioesterase: -13.8%; PfKRS1: 0.3752%
- Cc1ccc(NCc2cccc3cn[nH]c23)cc1OC1CCOC1 (configuration not stated) : ClpP1P2: -1.795%; MtTrpRS: -1.122%; Pks13 thioesterase: -38.59%; PfKRS1: 1.861%
- CC(NCc1cnc(C2CCC2)s1)c1ccc(-n2cncn2)cc1 (configuration not stated) : ClpP1P2: 2.609%; MtTrpRS: -1.09%; Pks13 thioesterase: -10.93%; PfKRS1: 1.908%
- COC1CCN(C(=O)Cc2csc(-c3ncccn3)n2)CC1 : ClpP1P2: 6.459%; MtTrpRS: -1.101%; Pks13 thioesterase: -9.2%; PfKRS1: 2.704%
- Cc1cc(N2Cc3cnn(CCO)c3C2)nc(-c2ccccc2O)n1 : ClpP1P2: 0.5048%; MtTrpRS: -0.4468%; Pks13 thioesterase: -15.19%; PfKRS1: 4.72%
- CC(C)c1nnc2n1CCN(C(=O)c1cccc(C(F)(F)F)c1)C2 : ClpP1P2: 2.736%; MtTrpRS: -5.659%; Pks13 thioesterase: -15.2%; PfKRS1: 9.391%
- CN1N=C(C(=O)N2CCCC(CCc3ccccc3)C2)CCC1=O (configuration not stated) : ClpP1P2: -9.064%; MtTrpRS: 1.053%; Pks13 thioesterase: -3.176%; PfKRS1: 3.938%
- O=C(NCc1cccc(F)c1)Nc1ccn(CCN2CCOCC2)n1 : ClpP1P2: -13.35%; MtTrpRS: 1.204%; Pks13 thioesterase: -23.17%; PfKRS1: 1.313%
- Clc1ccc(C2NCCc3cc4c(cc32)OCCO4)cc1 (configuration not stated) : ClpP1P2: 17.74%; Pks13 thioesterase: -30.69%; PfKRS1: -0.4988%
- CC1CCN(S(=O)(=O)N2CCc3c(c(C(=O)O)nn3CC3CC3)C2)CC1 : ClpP1P2: -3.386%; MtTrpRS: -1.783%; Pks13 thioesterase: 10.85%; PfKRS1: 2.921%
- O=C(Cn1c(=O)oc2ccccc21)N1Cc2cnn(CCO)c2C1 : ClpP1P2: 2.214%; MtTrpRS: -3.095%; Pks13 thioesterase: -29.42%; PfKRS1: 3.988%
- Cn1cccc1C(=O)N1C[C@H]2CN(CC3CC3)C(=O)[C@H]2C1 : ClpP1P2: -2.867%; MtTrpRS: -8.095%; Pks13 thioesterase: 6.313%; PfKRS1: -0.1271%
- CC(NC(=O)N(C)CCCOc1ccc(F)cc1)c1nncn1C (configuration not stated) : ClpP1P2: 2.107%; MtTrpRS: -3.294%; Pks13 thioesterase: -5.403%; PfKRS1: 1.806%
- CN(CCc1ccccn1)C(=O)CCC1CCCN(c2cnccn2)C1 (configuration not stated) : ClpP1P2: -4.655%; MtTrpRS: -0.9213%; Pks13 thioesterase: -3.732%; PfKRS1: 3.144%
- Cc1nnc(NCc2cccnc2OCC(F)(F)F)c(C#N)c1C : ClpP1P2: -25.81%; MtTrpRS: 1.355%; Pks13 thioesterase: 3.422%; PfKRS1: 0.3727%
- COc1ccc(OCc2nc(C(=O)N3CCC(NC(C)=O)C3)co2)cc1 (configuration not stated) : ClpP1P2: 8.005%; MtTrpRS: -1.087%; Pks13 thioesterase: -2.373%; PfKRS1: 0.7476%
- CC(C)N(C)Cc1nnc2n1CCCN(C(=O)c1ccco1)C2 : ClpP1P2: -13.93%; MtTrpRS: -3.638%; Pks13 thioesterase: -25.27%; PfKRS1: 1.284%
- O=C1C(N2CCOCC2)CCCN1Cc1cccc(C(F)(F)F)c1 (configuration not stated) : ClpP1P2: -8.954%; MtTrpRS: -3.979%; Pks13 thioesterase: -11.61%; PfKRS1: -3.983%
- CC(=O)c1cc(CN2C[C@H]3CC[C@@H]2CN(S(C)(=O)=O)C3)cs1 : ClpP1P2: -0.9757%; MtTrpRS: 4.311%; Pks13 thioesterase: 3.317%; PfKRS1: -7.156%
- Cc1nn(C)cc1-c1ccnc(N(C)Cc2cnn(C)c2)n1 : ClpP1P2: 4.536%; MtTrpRS: -1.207%; Pks13 thioesterase: -7.71%; PfKRS1: 3.601%
- c1ccc(C(OCCNC2CCc3ncnn3C2)c2ccccc2)cc1 (configuration not stated) : ClpP1P2: -2.121%; MtTrpRS: -3.595%; Pks13 thioesterase: -8.156%; PfKRS1: 1.728%
- CN(C)C(=O)N1CCC2(CC1)C(c1cnn(C)c1)CC(=O)N2C (configuration not stated) : ClpP1P2: -4.973%; MtTrpRS: -0.9931%; Pks13 thioesterase: 0.8608%; PfKRS1: 5.289%
- CC(=O)N1CCN(C[C@H]2CC[C@@H](Cc3ccc4c(c3)OCO4)O2)CC1 : ClpP1P2: -10.08%; MtTrpRS: -1.933%; Pks13 thioesterase: -5.181%; PfKRS1: 0.5566%

Once more, the final 2:

| Compound | ClpP1P2 | MtTrpRS | Pks13 thioesterase | PfKRS1 |
|---|---|---|---|---|
| `CN(C)C(=O)N1CCC2(CC1)C(c1cnn(C)c1)CC(=O)N2C` (configuration not stated) | -4.973 | -0.9931 | 0.8608 | 5.289 |
| `CC(=O)N1CCN(C[C@H]2CC[C@@H](Cc3ccc4c(c3)OCO4)O2)CC1` | -10.08 | -1.933 | -5.181 | 0.5566 |